Data taken from PubChem BioAssay AID1347076 (National Center for Advancing Translational Sciences (NCATS), 2019).
The campaign covered roughly 400,000 compounds. About 13,000 (3.2%) were called active. The inconclusive results got no clear call from the source; some entries with a clear call stand among them for comparison. Calls follow the shape of the dose curve; as a rule, active = well fitted cell-killing curve with a large enough effect; inconclusive = small, poorly fitted or top-dose-only effect, or effect the other way; inactive = flat fitted curve, though single readings scatter. A potency beside an inconclusive call is a rough fit, not a confirmed value.

Assay: qHTS assay for MDR1-selective chemotherapeutics: Primary screen using the drug-selected MDR subline cells KB-V1; also: nearly all actives have a fitted effect of over 60% in size
Settings: KB-V1 MDR cells viability, CellTiter-Glo, 72 h; activity change, negative = cytotoxicity: at 46.1 µM (top of the series)
How it was run: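 Cytotoxicity via CellTiter-Glo luminescence after 72 h compound exposure at 37 degrees C. Cells: drug-selected KB-V1 line, DMEM phenol-red free plus 10% FBS. Compounds tested at multiple concentrations; normalized data fitted to concentration-effect curves.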
% is scaled to controls: 0 for no effect and ±100 for the full control effect; potency is read from the fitted curve at half-maximal effect.

Row | Structure (SMILES) | Potency | activity change, negative = cytotoxicity
1 | CCC(C)NC(=O)Cn1cnc2sc(C)c(S(=O)(=O)N3CCN(c4ccccc4OC)CC3)c2c1=O (stereo unspecified) | inconclusive: 29.1 µM [rising, single point] | 
2 | CCN(CC)S(=O)(=O)c1ccc(N2CCOCC2)c(NC(=O)C2COc3ccccc3O2)c1 (stereo unspecified) |  | inactive: 0%
3 | CC1=C(C(N)=O)C(c2ccccc2)n2nc(-c3cccc(C)c3)nc2N1 (stereo unspecified) |  | inactive: -1.61%
4 | N#Cc1cc2c(nc1SCC(=O)NCc1ccc3c(c1)OCO3)CCCCC2 | active: 13 µM | 
5 | N#C/C(=C\c1ccc(O)c(O)c1)S(=O)(=O)c1ccccc1 |  | inactive: 5.84%
6 | O=C1c2ccccc2C(c2nnnn2Cc2ccccc2)N1CCc1ccccc1F (stereo unspecified) | inconclusive: 18.4 µM [cytotoxic, partial curve] | 
7 | COc1ccc(CN2CCN(C(=O)c3ccc(S(=O)(=O)N4CCCCCC4)cc3)CC2)cc1F | inconclusive: 1.84 µM [cytotoxic, full curve] | 
8 | COc1cccc(CN(C)C(=O)Nc2cccc(C(F)(F)F)c2)c1OC |  | inconclusive: -47.2%
9 | N#CC(c1ccccc1)C(CC(=O)c1ccccc1)c1ccccc1 (stereo unspecified) | inconclusive: 20.6 µM [cytotoxic, single point] | 
10 | CC1(C)CC(=O)C(C=NCC(O)c2ccccc2)=C(O)C1 (stereo unspecified) | inconclusive: 35.5 µM [cytotoxic, single point] | 
11 | CCc1ccc(N=c2c([N+](=O)[O-])nn(-c3ccccc3)n2O)cc1 | inconclusive: 23.1 µM [cytotoxic, single point] | 
12 | O=C(NCc1ccccn1)c1ccc(OC2CCN(Cc3cccs3)CC2)cc1 |  | inactive: 9.25%
13 | O=C(CN(Cc1ccc(F)cc1)C(=O)c1csnn1)NCc1ccc2c(c1)OCO2 | inconclusive: 14.6 µM [cytotoxic, partial curve] | 
14 | COCc1ccc(C(=O)N2CCCC(N3CCN(c4cccc(Cl)c4)CC3)C2)s1 (stereo unspecified) |  | inactive: 5.86%
15 | CCOC(=O)c1sc(NC(=O)c2nc3nc(C)cc(C(F)F)n3n2)c(C(=O)OC)c1C | inconclusive: 16.4 µM [rising, partial curve, poor fit] | 
16 | O=C(COC(=O)Cn1cnc2ccccc21)NCCc1ccc(Cl)cc1 | inconclusive: 1.3 µM [rising, full curve] | 
17 | O=C(c1ccc(CN2CCc3ccccc3C2)cc1)N1CCN(c2ccc(F)cc2)CC1 | inconclusive: 23.1 µM [cytotoxic, partial curve, poor fit] | 
18 | CC(=O)Oc1c(C)c(OC(C)=O)c2c(c1C(C)=O)OC1CC(=O)C(C(C)=O)=C(O)C21C (stereo unspecified) | inconclusive: 29.1 µM [cytotoxic, single point] | 
19 | COC(=O)c1ccc(C(=O)OC)c(NC(=O)CN2CCN(c3ccccc3)CC2)c1 | inconclusive: 20.6 µM [rising, partial curve, poor fit] | 
20 | COC(=O)c1ccc(Cn2nc(-c3cc(C)ccc3C)ccc2=O)cc1 |  | inactive: 1.4%
21 | O=C(CSc1nnc(C2CC2)n1-c1ccccc1)NCCc1ccc(F)cc1 | inconclusive: 13 µM [cytotoxic, partial curve] | 

Row | Structure (SMILES) | Potency | activity change, negative = cytotoxicity
22 | CCN1CCN(Cc2ccc(NC(=O)c3ccc(C)c(NC(=O)c4nccn4C)c3)cc2C(F)(F)F)CC1 |  | inactive: -3.03%
23 | COC(=O)c1sc(NC(=O)c2cnccn2)c(C(=O)OC)c1C |  | inactive: 0%
24 | Cc1ccc(NC(=O)CN2C(=O)C(C)(C)c3cc(S(=O)(=O)N4CCCCC4)ccc32)c(Br)c1 | inconclusive: 13 µM [cytotoxic, partial curve, poor fit] | 
25 | COc1ccc(Cl)cc1-n1c(CCC(=O)O)ccc1-c1ccc(C)cc1 | inconclusive: 18.4 µM [rising, partial curve, poor fit] | 
26 | Cc1ccccc1NC(=S)N1CCN(Cc2ccc3c(c2)OCO3)CC1 | inconclusive: 23.1 µM [cytotoxic, single point] | 
27 | COCCn1c(SCC(=O)Nc2cc(C(C)(C)C)nn2-c2ccccc2)nnc1-c1ccncc1 | active: 16.4 µM | 
28 | Cc1noc(C)c1CSc1nnc(-c2ccccc2F)n1CCc1ccccc1 | inconclusive: 9.2 µM [cytotoxic, partial curve] | 
29 | O=C(CC1N=C2c3ccccc3N=C(SCc3ccccc3Cl)N2C1=O)NC1CCCCC1 (stereo unspecified) | inconclusive: 7.31 µM [cytotoxic, partial curve, poor fit] | 
30 | CCOc1cc(CNC(C)(C)CO)cc(Br)c1OCc1ccc(Cl)cc1Cl | inconclusive: 25.9 µM [cytotoxic, partial curve, poor fit] | 
31 | CCOC(=O)[C@]12CCC=C1N(Cc1ccc3c(c1)OCO3)C(=O)[C@H](CC(=O)NCc1cccc(C(F)(F)F)c1)C2 | inconclusive: 20.6 µM [cytotoxic, single point] | 
32 | COc1ccc(C(C(=O)NC2CCCCC2)N(C(=O)Cc2c[nH]c3ccccc23)c2ccccc2C)cc1OC (stereo unspecified) | inconclusive: 14.6 µM [cytotoxic, partial curve] | 
33 | COc1ccc(NC(=O)c2oc3ccccc3c2NC(=O)Cc2ccc(F)cc2)c(OC)c1 | inconclusive: 1.46 µM [rising, full curve] | 
34 | C/C(=N\NC(=O)C(=O)Nc1cccc(Cl)c1)c1ccncc1 | inconclusive: 20.6 µM [cytotoxic, single point] | 
35 | N#C/C(=C\c1ccc(O)cc1)C(=O)N1CCCC1 |  | inactive: 9.92%
36 | C=CCOc1nc2c(c(=O)n(C)c(=O)n2C)n1Cc1c(Cl)cccc1Cl | inconclusive: 29.1 µM [cytotoxic, single point] | 
37 | CCCn1c(SCC(=O)Nc2ccccc2OC)nnc1-c1ccco1 | inconclusive: 1.64 µM [cytotoxic, full curve] | 
38 | CCOc1ccc2oc(-c3ccccc3)c(C(=O)N3CCN(CCO)CC3)c2c1 | inconclusive: 16.4 µM [cytotoxic, partial curve] | 
39 | COc1ccc(N2CCN(C(CNC(=O)c3ccco3)c3ccco3)CC2)cc1 (stereo unspecified) | inconclusive: 20.6 µM [cytotoxic, single point] | 
40 | Cc1nn(CC(=O)N2CCN(c3ccccc3)CC2)c(=O)c2cc3sccc3n12 | inconclusive: 16.4 µM [rising, single point] | 
41 | Clc1ccc(Cn2ncc3c(N4CCCCC4)ncnc32)c(Cl)c1 | inconclusive: 20.6 µM [cytotoxic, single point] | 

Fetched by structure from above (four):
Row | Structure (SMILES) | Potency | activity change, negative = cytotoxicity
40 | Cc1nn(CC(=O)N2CCN(c3ccccc3)CC2)c(=O)c2cc3sccc3n12 | inconclusive: 16.4 µM [rising, single point] | 
37 | CCCn1c(SCC(=O)Nc2ccccc2OC)nnc1-c1ccco1 | inconclusive: 1.64 µM [cytotoxic, full curve] | 
27 | COCCn1c(SCC(=O)Nc2cc(C(C)(C)C)nn2-c2ccccc2)nnc1-c1ccncc1 | active: 16.4 µM | 
24 | Cc1ccc(NC(=O)CN2C(=O)C(C)(C)c3cc(S(=O)(=O)N4CCCCC4)ccc32)c(Br)c1 | inconclusive: 13 µM [cytotoxic, partial curve, poor fit] | 
